For assay [1], the target named is N-HRB1 (N-terminal half of HRB1 fused to the GAL4 DNA binding domain) (Arabidopsis thaliana). Nature of the assay: two-hybrid; quantitative yeast two-hybrid assay (beta-galactosidase activity); baits in pGBKT7, preys in pGADT7; transformants selected on SD medium lacking Trp and Leu.
For assay [2], the target named is GAL4 DNA binding domain alone (GBD). Nature of the assay: pull-down; in vitro immuno-precipitation: GBD or GBD:HRB1 from E. coli total extract captured with anti-GAL4 BD antibody on protein A/G agarose and washed, then incubated with in vitro translated 35S-labelled PP7 at 4 C for 2 hours; 1x PBS pH 7.5, 0.1% NP40; autoradiography; only the target ….

These are yes or no findings as the source states them, for the method shown. For part of these data: Binding calls can cover weak binding; strength is not graded here. For part of these data: Where a sequence is shown, tags or fusion partners need not be part of it. For part of these data: In cells and extracts the contact can be indirect.

B1: AD-PP7 (full-length Protein Phosphatase 7 fused to the GAL4 activation domain) (enzyme, UniProt Q9FN02 1-413)
chain: METVPPSPITWPDGGALTNDWVHGLMSCFEWSSWNLPPSQLPSLLPVNVFDSLVLTAHKILHKERNCVHIDDLDSVSNVVVVGDIHGQLHDLLFLLKDTGFPCQNRCYVFNGDYVDRGAWGLETFLVLLSWKVLMPDRVYLLRGNHESKYCTSMYGFEKEVLTKYGDKGKHVYRKCLGCFEGLPLASIISGRVYTAHGGLFRSPVLPKRTTRGKKNRRVVLLEPEPSSMKLGTLDELMQARRSVLDPPWEGSNLIPGDVLWSDPSMTPGLSPNEQRGIGLLWGPDCTEDFLKKYELKLIIRSHEGPDAREKRTGLGGMDNGYTIDHNVESGKLITIFSAPDYPQFQATEERYKNKGAYIILQAPDFSDPQFHSFEAVKPRPKAHPYYDFENVIDSDDEMDKSAMDTNNEQPNS
On to B1, for which the binding entry in assay [1] is “binds”.

B2: PP7 produced in a TnT in vitro transcription and translation system (enzyme, UniProt Q9FN02 1-413)
chain: METVPPSPITWPDGGALTNDWVHGLMSCFEWSSWNLPPSQLPSLLPVNVFDSLVLTAHKILHKERNCVHIDDLDSVSNVVVVGDIHGQLHDLLFLLKDTGFPCQNRCYVFNGDYVDRGAWGLETFLVLLSWKVLMPDRVYLLRGNHESKYCTSMYGFEKEVLTKYGDKGKHVYRKCLGCFEGLPLASIISGRVYTAHGGLFRSPVLPKRTTRGKKNRRVVLLEPEPSSMKLGTLDELMQARRSVLDPPWEGSNLIPGDVLWSDPSMTPGLSPNEQRGIGLLWGPDCTEDFLKKYELKLIIRSHEGPDAREKRTGLGGMDNGYTIDHNVESGKLITIFSAPDYPQFQATEERYKNKGAYIILQAPDFSDPQFHSFEAVKPRPKAHPYYDFENVIDSDDEMDKSAMDTNNEQPNS
modifications: radiolabeled with 35S-methionine
Regarding B2, the binding entry in assay [2] is reported as “no binding”.

B3: PP7m (PP7 with a D to A change at amino acid position 116, fused to the GAL4 activation domain) (enzyme, UniProt Q9FN02 1-413)
chain: METVPPSPITWPDGGALTNDWVHGLMSCFEWSSWNLPPSQLPSLLPVNVFDSLVLTAHKILHKERNCVHIDDLDSVSNVVVVGDIHGQLHDLLFLLKDTGFPCQNRCYVFNGDYVARGAWGLETFLVLLSWKVLMPDRVYLLRGNHESKYCTSMYGFEKEVLTKYGDKGKHVYRKCLGCFEGLPLASIISGRVYTAHGGLFRSPVLPKRTTRGKKNRRVVLLEPEPSSMKLGTLDELMQARRSVLDPPWEGSNLIPGDVLWSDPSMTPGLSPNEQRGIGLLWGPDCTEDFLKKYELKLIIRSHEGPDAREKRTGLGGMDNGYTIDHNVESGKLITIFSAPDYPQFQATEERYKNKGAYIILQAPDFSDPQFHSFEAVKPRPKAHPYYDFENVIDSDDEMDKSAMDTNNEQPNS
Regarding B3, the binding result in assay [1] was “binds”.
